{
  "source": "patent US5837807",
  "about": "(dated 1998)",
  "data": [
    {"experiment": "general procedure: solution-phase peptide synthesis; polystyrene-divinylbenzene (named as a possible carrier); TATU/HOAT (HOPT)/ethyldiisopropylamine or EDC/HOBt/ethyldiisopropylamine", "conditions": "coupling step, trifluoroacetate (1:1) for amine intermediates", "units": {"step yield": "%"}, "values": [
      {"substance": "tert.butyl [(S)-1-[(3S,7S,10S,13R)-3,7,10-trimethyl-6,9,12-trioxo-3,4,5,6,7,8,9,10,11,12,13,14,19,20-tetradecahydro-13,15-etheno-2H-1,5,8,11-benzoxatriazacyclohexadecin-13-ylcarbamoyl]-ethyl]-carbamate", "step yield": ">100"},
      {"substance": "tert.butyl (S)-1-[(12S,15S,18R)-12,15-dimethyl-11,14,17-trioxo-10,11,12,13,14,15,16,17,18,19,20,21-dodecahydro-1,18-etheno-dibenz[b,n]-[1,5,8,11]oxatriazacyclopentadecin-18-ylcarbamoyl]-ethyl carbamate", "step yield": 90.4},
      {"substance": "tert.butyl [(S)-1-[(3S,7S,10S,13R)-5-ethyl-3,7,10-trimethyl-6,9,12-trioxo-13,15-etheno-3,4,5,6,7,8,9,10,11,12,13,14,19,20-tetradecahydro-2H-1,5,8,11-benzoxatriazacyclohexadecin-13-ylcarbamoyl]-ethyl]-carbamate", "step yield": 86.4},
      {"substance": "tert.butyl [(S)-1[(13S,16S,19R)-13,16-dimethyl-12,15,18-trioxo-11,12,13,14,15,16,17,18,19,20,22-dodecahydro-1,19-etheno-10H-dibenz-[b,o][1,5,8,11]oxatriazacyclohexadecin-19-ylcarbamoyl]-ethyl]-carbamate", "step yield": 100},
      {"substance": "tert.butyl [(S)-1-[(12S,15S,18R)-12,15-dimethyl-11,14,17-trioxo-10,11,12,13,14,15,16,17,18,19,20,21-dodecahydro-1,18-etheno-pyrido[2,3-b]-benz[n][1,4,7,10]oxatriazacyclopentadecin-18-ylcarbamoyl]-ethyl]-carbamate", "step yield": 79.7}
    ]},
    {"experiment": "general procedure: solution-phase peptide synthesis; polystyrene-divinylbenzene (named as a possible carrier); TATU/HOAT (HOPT)/ethyldiisopropylamine or EDC/HOBt/ethyldiisopropylamine", "conditions": "late stage modification step, trifluoroacetate (1:1) for amine intermediates", "units": {"step yield": "%"}, "values": [
      {"substance": "(S)-2-amino-N-[(3S,7S,10S,13R)-5-ethyl-3,7,10-trimethyl-6,9,12-trioxo-13,15-etheno-3,4,5,6,7,8,9,10,11,12,13,14,19,20-tetradecahydro-2H-1,5,8,11-benzoxatriazacyclohexadecin-13-yl]-propionamide trifluoroacetate (1:1)", "step yield": 94.8},
      {"substance": "(S)-2-amino-N-[(13S,16S,19R)-13,16-dimethyl-12,15,18-trioxo-11,12,13,14,15,16,17,18,19,20,21,22-dodecahydro-1,19-etheno-10H-dibenz[b,o][1,5,8,11]oxatriazacyclohexadecin-19-yl]-propionamide trifluoroacetate (1:1)", "step yield": 75.4},
      {"substance": "(S)-2-amino-N-[(12S, 15S,18R)-12,15-dimethyl-11,14,17-trioxo-10,11,12,13,14,15,16,17,18,19,20,21-dodecahydro-1,18-etheno-pyrido[2,3-b]benz[n][1,4,7,10]oxatriazacyclopentadecin-18-yl]-propionamide trifluoroacetate (1:1)", "step yield": 87},
      {"substance": "(S)-2-amino-N-[(12S,15S,18R)-12,15-dimethyl-11,14,17-trioxo-10,11,12,13,14,15,16,17,18,19,20,21-dodecahydro-1,18-etheno-dibenz[b,n][1,5,8,11]-oxatriazacyclopentadecin-18-yl]-propionamide trifluoroacetate (1:1)", "step yield": "~100"}
    ]}
  ]
}
